# Source: paper PMC7862700
# This is one part of the list. Construct or isoform of the protein are uncertain.
# Molecular target: T1, ETS1 (UniProt P14921)
# T1 sequence: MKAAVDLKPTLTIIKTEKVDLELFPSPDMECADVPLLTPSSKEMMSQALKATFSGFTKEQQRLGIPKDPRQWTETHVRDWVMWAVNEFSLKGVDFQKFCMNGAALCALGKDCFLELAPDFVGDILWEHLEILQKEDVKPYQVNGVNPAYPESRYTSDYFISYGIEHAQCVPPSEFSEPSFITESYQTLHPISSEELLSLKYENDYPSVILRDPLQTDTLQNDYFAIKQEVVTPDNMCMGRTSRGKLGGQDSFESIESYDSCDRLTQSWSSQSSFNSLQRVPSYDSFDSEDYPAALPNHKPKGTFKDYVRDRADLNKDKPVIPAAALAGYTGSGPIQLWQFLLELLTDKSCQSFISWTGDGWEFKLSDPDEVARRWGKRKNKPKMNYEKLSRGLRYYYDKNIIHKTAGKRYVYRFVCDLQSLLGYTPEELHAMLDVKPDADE
# Experiment: DAPPL (digital affinity profiling via proximity ligation, sequencing)
# Conditions: 10 mM Tris-HCl pH 7.5, 50 mM NaCl, 1 mM DTT, 4% glycerol, room temperature, 30 min; GST-TFs on glutathione beads, 16-mer random dsDNA library, 0.1% …; high values mean tight binding; double strand, one strand shown; scale: fold enrichment (6-mer frequency, TF over GST control)
row,Sequence,binding signal
1,TGCAGA,1.04
2,CATTAT,1.18
3,CCAAGA,0.88
4,AGAAGA,0.921
5,AGTGCC,0.88
6,CATCGT,0.949
7,AGATCT,1.02
8,CCAAGT,0.92
9,AGGAAT,0.76
10,TCATCG,0.937
11,AGAACC,0.939
12,AACCGA,1.04
13,GTAGAA,0.861
14,GAATGG,1.07
15,GACCAA,1.02
16,TCGAAA,1.02
17,AGGGTT,0.888
18,AGGGCT,1.09
19,TTGAGA,0.864
20,ACAGAA,0.963

row,Sequence,binding signal
1,TCCAGA,0.885
2,GCCAGA,0.608
3,TAGGTA,0.972
4,GTGGTC,0.825
5,AGATAT,0.923
6,GGCTGC,0.927
7,AGAAGG,0.731
8,TAATCG,1.03
9,CAGAAA,0.922
10,GTTCAG,0.85
11,GAATAG,0.868
12,GCTAAC,1.05
13,CCCACT,1.4
14,GCCGCT,1.02
15,GCGATT,0.989
16,ACTGAT,1.34
17,TATTTA,1.48
18,TTGGGA,0.954
19,AGACTT,1.07

# Reformatted with tabs: part of the list above.
row	Sequence	binding signal
6	CATCGT	0.949
7	AGATCT	1.02
